Data as given in PubChem BioAssay AID1259415 (National Center for Advancing Translational Sciences (NCATS), 2018).
About 18,000 (4.4%) of roughly 410,000 compounds were called active. This list was built around the results that the source calls inconclusive (neither active nor inactive); the mix of calls is not that of the screen. No stated cut-off is given here; in the data, active means activity change below about -60%; inconclusive means no clear call, values can overlap the other calls; inactive means above about -39%.

assay: qHTS Assay for inhibitors of the human cytomegalovirus (HCMV); settings: HFF cells, HCMV-luciferase reporter, 72 h; at 57.5 µM; hits give low values
In short: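 Two-dose cell screen: HFF monolayers treated with compounds and infected with luciferase-expressing HCMV at 1 PFU/cell, 72 h at 37C, then lysed for luciferase measurement.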
On the % scale 0 is the no-effect control and ±100 the full control effect.

Structure (SMILES)	activity change, negative = inhibition
OC(CNc1ccccc1)COc1ccc(OCC(O)CNc2ccccc2)cc1 (stereo not drawn)	inconclusive: -51.6%
CCOc1ccc(-c2c(C(=O)N/N=C/C3CC=CCC3)nnn2-c2nonc2N)cc1 (stereo not drawn)	inconclusive: -41.5%
CC(=O)C[C@H](O)CC(=O)[C@@H]1OC(=O)CCCCC/C=C/Cc2ccccc21	inconclusive: -42.6%
CC(C)N1CCC2(CC1)N=C(c1ccc3c(c1)OCO3)CC(c1cc(Cl)ccc1O)N2 (stereo not drawn)	active: -80.8%
Cc1ccc(NC(=S)NCCSc2ccc(Cl)cc2)c(C)c1	active: -83.6%
Cc1ccc2[nH]c(=O)c(CN(CC3COCCO3)C(=O)Nc3ccccc3F)cc2c1 (stereo not drawn)	inconclusive: -47.8%
O=C1NC(=Nc2ccc(Cl)cc2)SC1Cc1cc(Cl)ccc1Cl (stereo not drawn)	inconclusive: -40.8%
Cc1ccc(NS(=O)(=O)c2cc(C(=O)Nc3cccc(N(C)S(C)(=O)=O)c3)ccc2C)c(C)c1	inconclusive: -44.3%
O=C(O)C1CSC(c2ccccc2Cl)N1C(=O)c1ccc(Cl)cc1 (stereo not drawn)	active: -61%
CN1CCN(C(=O)CCc2nnc3ccc(N4CCC5(CC4)OCCO5)nn23)CC1	inconclusive: -49.4%
CC1CN(C(=O)CCc2cc(C(C)(C)C)c(O)c(C(C)(C)C)c2)CC(C)O1 (stereo not drawn)	inactive: -24.8%
Cc1ccc(SCCC(=O)NCCSCc2ccco2)cc1	active: -99.6%
Cc1ccc(C(=O)OCn2ncc(Cl)c(Cl)c2=O)cc1	active: -102%
CCCCNc1c(C(=O)OCC)c(=O)[nH]c2ccccc12	inconclusive: -52.8%
Cc1cccc(-n2ncc(C(=O)Nc3ccc4c(c3)OCO4)c2C2CCN(C(=O)OC(C)(C)C)CC2)c1	inconclusive: 0%
Oc1ccc(NCc2ccccc2OCc2ccccc2Cl)cc1	inconclusive: -45.5%
Cc1ccc(S(=O)(=O)N(C)Cc2ccccc2)cc1C(=O)N1CCCCC1	inconclusive: -46.6%
Brc1ccc(-c2ccc(CNCc3ccccn3)o2)cc1	inconclusive: -43.6%
Cc1oc(-c2cccc(Br)c2)nc1CSc1nc2ncccc2[nH]1	inconclusive: -51.8%
CCOc1cccc(C2/C(=C(\O)c3ccc4c(c3)OCCO4)C(=O)C(=O)N2Cc2ccncc2)c1 (stereo not drawn)	inconclusive: -51.5%
O=C(Cc1ccc(Cl)cc1)NCC(=O)N1CCN(c2ccccc2)CC1	inconclusive: -44.6%

Structure (SMILES)	activity change, negative = inhibition
O=C(c1cccc(Cl)c1)N1CCN(Cc2c[nH]c3ccccc23)CC1	inactive: 2.34%
COc1ccc(C(=O)C2CCCN(C(=O)c3cccc(Cn4cccn4)c3)C2)cc1F (stereo not drawn)	inconclusive: -49.8%
O=C(N[C@@H]1CCC(=O)N(CC[C@H](Sc2ccccc2)c2ccccc2)CC1)OCc1ccccc1	inconclusive: -40.5%
COc1ccc(CCn2c(=N)c(C(=O)NCC3CCCO3)cc3c(=O)n4ccccc4nc32)cc1OC (stereo not drawn)	active: -110%
CCOc1ccc(S(=O)(=O)NCCC(=O)N2CCN(C(C)=O)CC2)cc1	inactive: -17.2%
Cc1ccccc1C(C(=O)NC1CCCCC1)N(C(=O)CNC(=O)c1ccco1)c1cccnc1 (stereo not drawn)	inconclusive: -50.7%
COc1ccc(C(=O)CCC(=O)Nc2cccnc2)cc1OC	inactive: -10.4%
CCS(=O)(=O)c1ccc(O)c(NC(=O)COc2ccc(Br)cc2)c1	inconclusive: -53.9%
CSCCC(NC(=O)c1ccccc1Cl)C(=O)N1CCN(c2ccccn2)CC1 (stereo not drawn)	inconclusive: -40.5%
CN(CCOc1ccc(-c2ccn(S(=O)(=O)c3cccc4ccccc34)n2)cc1)c1ccccn1	inactive: -14.2%
COc1ccc(C(Nc2ccccn2)c2c(NC(=O)c3ccco3)sc(C)c2C)cc1 (stereo not drawn)	inconclusive: -58.8%
CN(C(=O)CN1CCN(c2cc(-c3ccc(OCc4ccccc4)cc3)ncn2)CC1)c1ccccc1	active: -71.2%
Cc1ccc2nc(SCC(=O)NC3CCCc4ccccc43)[nH]c2c1 (stereo not drawn)	inconclusive: -44.6%
CCOc1cc(NC(=O)c2ccccn2)c(OCC)cc1NC(=O)c1cccc(C)c1	inconclusive: -58%
CC(C)c1ccc(NC(=O)CN2C=NS(=O)(=O)c3ccccc32)cc1	inactive: 7.23%
O=c1[nH]c2ccccc2n1C1CCN(C(c2cc3ccccc3o2)c2nnnn2-c2ccc3c(c2)OCCO3)CC1 (stereo not drawn)	active: -99%
COc1ccc(OC)c(N2C(=O)CCCC2=O)c1	inactive: -8.81%
CCCc1cc(=O)oc2c3c(cc(OCC(=O)NCCCn4ccnc4)c12)OC(C)(C)CC3	inconclusive: -45.5%
Cc1ccc(N2C(N)=NC(N)=NC23CCCC3)c(C)c1	active: -67.4%
Cc1ccc2nc(-c3ccc(NC(=O)C4CCCO4)cc3)[nH]c2c1 (stereo not drawn)	inactive: 3.94%
CC(=O)N(c1ccc2oc(=O)sc2c1)S(=O)(=O)c1ccc(C)cc1	inconclusive: -41.3%

Structure (SMILES)	activity change, negative = inhibition
Cc1ccc(S(=O)(=O)N2C[C@@H]3[C@H]4CC[C@H](C4)[C@@H]3[C@@H](C)[C@@H]2c2cn(Cc3ccccc3)c3ncccc23)cc1	inconclusive: -48.2%
Clc1ccc(-c2nn3cnnc3s2)c(Cl)c1	inconclusive: -46.6%
O=C(NNC1=Nc2ccccc2SC1)c1ccccc1F	active: -85.9%
CC(C)CCOP(=O)(c1ccc(N(C)C)cc1)C(O)c1c(Cl)cccc1Cl (stereo not drawn)	inconclusive: -59.8%
Cn1c(N)c(C(=O)COC(=O)C2(c3cccc(F)c3)CCCC2)c(=O)n(C)c1=O	inconclusive: -53%
CCc1ccc(NC(=O)COC(=O)/C(=C/c2ccccc2OC)c2ccccc2)cc1	inconclusive: -40.3%
CN(c1cccc(NC(=O)CN(c2cccc(Cl)c2)S(=O)(=O)c2ccccc2)c1)S(C)(=O)=O	inconclusive: -55.4%
Cc1ccccc1CSc1nc2ccccc2c(=O)n1C	inconclusive: 0%
CC1CN(C(=O)N2c3ccccc3Sc3ccccc32)CC(C)O1 (stereo not drawn)	inconclusive: -41.6%
CS(=O)(=O)c1nc(S(=O)(=O)c2ccc(Cl)cc2)c(N2CCC(C(N)=O)CC2)s1	inconclusive: -46.4%
COCCNc1ncnc2c1ncn2[C@H]1CN(Cc2ccco2)C[C@@H](CO)O1	inactive: 4%
CCCCN(CC)C(=O)c1ccc(-c2ccccc2)cc1	inconclusive: -42.9%
O=C(COc1cccc(NC(=O)c2cccc([N+](=O)[O-])c2)c1)c1ccc(Br)cc1	active: -72.8%
COc1ccc(S(=O)(=O)NCC(c2ccco2)N2CCN(c3ccccc3F)CC2)cc1C (stereo not drawn)	inactive: 30.8%
CCCCCOc1ccc(NC(=O)Cn2c(-c3cncs3)nc3ccccc32)cc1	active: -63.9%
O=C(CCN1C(=O)S/C(=C\C=C\c2ccccc2)C1=O)Nc1ccc(O)cc1	inconclusive: -50.5%
Cc1nc(NC(=O)c2cccc(-c3cc4ccccc4oc3=O)c2)ccc1Br	inactive: -32.3%
CC(NC(=O)C1=CC=CN2CCS(=O)(=O)N=C12)c1ccc(Cl)cc1Cl (stereo not drawn)	inconclusive: -44.5%
C=CCn1c(O)c2ccc(C(=O)N=NC(=O)COc3ccc(OC)cc3)cc2c1O	inconclusive: -49.6%
Cc1cc(C)c(C#N)c(SCS(=O)Cc2ccc(Cl)cc2)n1 (stereo not drawn)	inconclusive: -50.2%
COc1cccc(C(C(=O)NC2CCCCC2)N(CCN2CCOCC2)C(=O)C2COc3ccccc3O2)c1 (stereo not drawn)	inactive: 2.24%

Structure (SMILES)	activity change, negative = inhibition
O=C(Nc1cccc(S(=O)(=O)N2CCCCCC2)c1)c1ccc(Cl)nc1	inconclusive: -56.9%
Cc1ccc(N(C(=O)CCC(=O)Nc2nccs2)C(C(=O)NC(C)(C)C)c2ccc(O)cc2)cc1 (stereo not drawn)	inconclusive: -58.7%
CCOC(=O)N1CCN(Cc2nc3cc(NC(=O)c4ccc([N+](=O)[O-])cc4)ccc3n2C(C)C)CC1	active: -83%
COc1ccc(C(=O)O)cc1S(=O)(=O)Nc1cc(C(F)(F)F)ccc1N1CCCCC1	inactive: -15.4%
CC(=O)c1cccc(-c2ccnc3c2CC(C(=O)NCCc2ccccc2)O3)c1 (stereo not drawn)	inactive: -16.6%
O=C(NCc1cccs1)C1CCN(c2nc3ccccc3o2)CC1	inconclusive: -45.1%
COc1ccc2[nH]c(CN3CCN(CC=C(C)C)C(CCO)C3)c(C)c2c1 (stereo not drawn)	inactive: -14.2%
CCCCC(CC)C(=O)Nc1ccc(Nc2ccccc2)cc1 (stereo not drawn)	inconclusive: -50.2%
CC(C)(C)NC(=O)CSc1nc(Cc2ccccc2)nc2ccccc12	active: -66.8%
O=C(COc1cccnc1[N+](=O)[O-])Nc1ccc(Cl)c(S(=O)(=O)N2CCOCC2)c1	inactive: 0%
Cc1ccc(-c2nc3c(c(=O)[nH]c(=O)n3Cc3ccccc3)n2C)o1	inconclusive: -40.2%
CN(C)C(=O)c1cccc(-c2cnc3sc(NCc4ccc5c(c4)OCO5)nn23)c1	inconclusive: -51.7%
CS(=O)(=O)N1CCc2cc(C(=O)Nc3ccc(COCC(F)(F)F)cc3)ccc21	inconclusive: -40.2%
CC(C)[C@H](NC(=O)c1ccco1)C(=O)OCC(=O)N1CCc2ccccc21	inactive: 28.4%
Cc1ccc(Cn2c(C)c3cnn(CC(=O)N4CCN(c5ccc(F)cc5)CC4)c(=O)c3c2C)cc1	inconclusive: -44.8%
Cc1ccc(/C=C2\S/C(=N/S(=O)(=O)c3cccs3)NC2=O)cc1	inconclusive: -46.8%
Cc1oc2ncn(CC(C)C)c(=O)c2c1C(=O)N(Cc1ccccc1)C(C)C	inactive: 20.4%
Cc1ccc(-n2[nH]c(C)c(/C=C3/C=Nc4ccccc43)c2=O)cc1C	inactive: 146%
CCCOc1ccc(C(C)=O)cc1CSCCC#N	inactive: -13.9%
CC(C)Oc1ccc(C(=O)Nc2nc3c(s2)CC(C(C)(C)C)CC3)cc1 (stereo not drawn)	inconclusive: -51.5%

In the list so far, these have a nitro group on carbon.
Structure (SMILES)	activity change, negative = inhibition
O=C(COc1cccc(NC(=O)c2cccc([N+](=O)[O-])c2)c1)c1ccc(Br)cc1	active: -72.8%
CCOC(=O)N1CCN(Cc2nc3cc(NC(=O)c4ccc([N+](=O)[O-])cc4)ccc3n2C(C)C)CC1	active: -83%
O=C(COc1cccnc1[N+](=O)[O-])Nc1ccc(Cl)c(S(=O)(=O)N2CCOCC2)c1	inactive: 0%
